Source: the supplement of paper PMC8728848
This is one part of the list.

Columns and labels:
Assay in all cases: glycan array binding signal (z-score within array); higher = stronger binding
Details in all cases: glycan notation: IUPAC condensed, linker removed
[1] = molecular target: Kdn(a2-3)Gal(b1-4)GlcNAc
In short: (§1)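 From the Consortium for Functional Glycomics database, 3228 arrays were curated, keeping only those whose protein sequence was available. Binding is given as a within-array Z-score averaged across arrays sharing a protein sequence and across linkers. Negative Z-scores can be read as non-binding.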

[2] = molecular target: Kdn(a2-3)Gal(b1-4)[Fuc(a1-3)]GlcNAc
In short: as §1

[3] = molecular target: Kdn(a2-6)Gal(b1-4)GlcNAc
In short: as §1

[4] = molecular target: Man(a1-2)Man(a1-2)Man(a1-3)Man
In short: as §1

[5] = molecular target: Man(a1-2)Man(a1-2)Man(a1-6)[Man(a1-3)]Man
In short: as §1

[6] = molecular target: Man(a1-2)Man(a1-3)Man
In short: as §1

[7] = molecular target: Man(a1-2)Man(a1-3)[Man(a1-2)Man(a1-6)]Man
In short: as §1

[8] = molecular target: Man(a1-2)Man(a1-3)[Man(a1-2)Man(a1-6)]Man(a1-6)[Man(a1-2)Man(a1-2)Man(a1-3)]Man
In short: as §1

[9] = molecular target: Man(a1-2)Man(a1-3)[Man(a1-2)Man(a1-6)]Man(a1-6)[Man(a1-2)Man(a1-2)Man(a1-3)]Man(b1-4)GlcNAc(b1-4)GlcNAc
In short: as §1

[10] = molecular target: Man(a1-2)Man(a1-3)[Man(a1-6)]Man(a1-6)[Man(a1-2)Man(a1-3)]Man(b1-4)GlcNAc(b1-4)GlcNAc
In short: as §1

[11] = molecular target: Man(a1-2)Man(a1-6)[Man(a1-3)]Man(a1-6)[Man(a1-2)Man(a1-2)Man(a1-3)]Man
In short: as §1

[12] = molecular target: Man(a1-2)Man(a1-6)[Man(a1-3)]Man(a1-6)[Man(a1-2)Man(a1-2)Man(a1-3)]Man(b1-4)GlcNAc(b1-4)GlcNAc
In short: as §1

[13] = molecular target: Man(a1-3)[Man(a1-6)]Man
In short: as §1

[14] = molecular target: Man(a1-3)[Man(a1-6)]Man(a1-6)[Man(a1-2)Man(a1-3)]Man(b1-4)GlcNAc(b1-4)GlcNAc
In short: as §1

[15] = molecular target: Man(a1-3)[Man(a1-6)]Man(a1-6)[Man(a1-3)]Man
In short: as §1

[16] = molecular target: Man(a1-3)[Man(a1-6)]Man(a1-6)[Man(a1-3)]Man(b1-4)GlcNAc(b1-4)GlcNAc
In short: as §1

[17] = molecular target: Man(a1-3)[Man(a1-6)]Man(b1-4)GlcNAc(b1-4)GlcNAc
In short: as §1

[18] = molecular target: Man(a1-3)[Man(a1-6)]Man(b1-4)GlcNAc(b1-4)[Fuc(a1-6)]GlcNAc
In short: as §1

[19] = molecular target: Man(a1-6)Man
In short: as §1

[20] = molecular target: Man(b1-4)GlcNAc
In short: as §1

[21] = molecular target: MurNAc(b1-4)GlcNAc
In short: as §1

[22] = molecular target: Neu5Ac(a2-3)Gal
In short: as §1

[23] = molecular target: Neu5Ac(a2-3)Gal(b1-3)GalNAc
In short: as §1

[24] = molecular target: Neu5Ac(a2-3)Gal(b1-3)GalNAc(b1-3)Gal(a1-4)Gal(b1-4)Glc
In short: as §1

[25] = molecular target: Neu5Ac(a2-3)Gal(b1-3)GalNAc(b1-3)Gal(b1-4)GlcNAc
In short: as §1

[26] = molecular target: Neu5Ac(a2-3)Gal(b1-3)GalNAc(b1-4)Gal(b1-4)Glc
In short: as §1

[27] = molecular target: Neu5Ac(a2-3)Gal(b1-3)GalNAc(b1-4)[Neu5Ac(a2-3)]Gal(b1-4)Glc
In short: as §1

[28] = molecular target: Neu5Ac(a2-3)Gal(b1-3)GalNAc(b1-4)[Neu5Ac(a2-8)Neu5Ac(a2-3)]Gal(b1-4)Glc
In short: as §1

[29] = molecular target: Neu5Ac(a2-3)Gal(b1-3)GalNAc6S
In short: as §1

[30] = molecular target: Neu5Ac(a2-3)Gal(b1-3)GlcNAc
In short: as §1

[31] = molecular target: Neu5Ac(a2-3)Gal(b1-3)GlcNAc(b1-2)Man
In short: as §1

[32] = molecular target: Neu5Ac(a2-3)Gal(b1-3)GlcNAc(b1-2)Man(a1-3)[GlcNAc(b1-4)][Neu5Ac(a2-3)Gal(b1-3)GlcNAc(b1-2)Man(a1-6)]Man(b1-4)GlcNAc(b1-4)GlcNAc
In short: as §1

[33] = molecular target: Neu5Ac(a2-3)Gal(b1-3)GlcNAc(b1-2)Man(a1-3)[Neu5Ac(a2-3)Gal(b1-3)GlcNAc(b1-2)Man(a1-6)]Man(b1-4)GlcNAc(b1-4)GlcNAc
In short: as §1

[34] = molecular target: Neu5Ac(a2-3)Gal(b1-3)GlcNAc(b1-2)[Neu5Ac(a2-3)Gal(b1-3)GlcNAc(b1-4)]Man(a1-6)[Neu5Ac(a2-3)Gal(b1-3)GlcNAc(b1-2)Man(a1-3)]Man(b1-4)GlcNAc(b1-4)GlcNAc
In short: as §1

[35] = molecular target: Neu5Ac(a2-3)Gal(b1-3)GlcNAc(b1-3)Gal(b1-3)GlcNAc
In short: as §1

[36] = molecular target: Neu5Ac(a2-3)Gal(b1-3)GlcNAc(b1-3)Gal(b1-4)GlcNAc
In short: as §1

[37] = molecular target: Neu5Ac(a2-3)Gal(b1-3)GlcNAc(b1-3)GalNAc
In short: as §1

[38] = molecular target: Neu5Ac(a2-3)Gal(b1-3)GlcNAc(b1-6)GalNAc
In short: as §1

[39] = molecular target: Neu5Ac(a2-3)Gal(b1-3)GlcNAc6S
In short: as §1

[40] = molecular target: Neu5Ac(a2-3)Gal(b1-3)[Fuc(a1-4)]GlcNAc
In short: as §1

[41] = molecular target: Neu5Ac(a2-3)Gal(b1-3)[Fuc(a1-4)]GlcNAc(b1-3)Gal(b1-3)[Fuc(a1-4)]GlcNAc
In short: as §1

[42] = molecular target: Neu5Ac(a2-3)Gal(b1-3)[Fuc(a1-4)]GlcNAc(b1-3)Gal(b1-4)[Fuc(a1-3)]GlcNAc
In short: as §1

[43] = molecular target: Neu5Ac(a2-3)Gal(b1-3)[GlcNAc(b1-6)]GalNAc
In short: as §1

[44] = molecular target: Neu5Ac(a2-3)Gal(b1-3)[Neu5Ac(a2-3)Gal(b1-4)]GlcNAc
In short: as §1

[45] = molecular target: Neu5Ac(a2-3)Gal(b1-3)[Neu5Ac(a2-6)]GalNAc
In short: as §1

B1: GST Gap3 (Streptococcus parasanguinis) (protein)
chain: MTKQLISEIYWNEIRKGENYLYGSQIKFQEDLVNFYNPQLASGKPIVTFKSRTNYQGDRHSPDLPILIQGNRYLLEYQIDAVPANSFFLQLDFFNRQAEQIESIVLRNSGESFIFPKDTFTYTLTLMSAGCQSVTYQKFMIYDINDEEKKNHIVENRYLRELLPKDLDLVKNLIEYI
- glycan array binding signal (z-score) [1]: -0.034
- glycan array binding signal (z-score) [2]: 0.164
- glycan array binding signal (z-score) [3]: -0.471
- glycan array binding signal (z-score) [4]: -0.495
- glycan array binding signal (z-score) [5]: -0.226
- glycan array binding signal (z-score) [6]: -0.273
- glycan array binding signal (z-score) [7]: -0.379
- glycan array binding signal (z-score) [8]: -0.19
- glycan array binding signal (z-score) [9]: -0.231
- glycan array binding signal (z-score) [10]: -0.304
- glycan array binding signal (z-score) [11]: -0.335
- glycan array binding signal (z-score) [12]: -0.359
- glycan array binding signal (z-score) [13]: -0.311
- glycan array binding signal (z-score) [14]: -0.369
- glycan array binding signal (z-score) [15]: -0.516
- glycan array binding signal (z-score) [16]: -0.294
- glycan array binding signal (z-score) [17]: -0.303
- glycan array binding signal (z-score) [18]: -0.194
- glycan array binding signal (z-score) [19]: -0.41
- glycan array binding signal (z-score) [20]: -0.526
- glycan array binding signal (z-score) [21]: -0.582
- glycan array binding signal (z-score) [22]: -0.372
- glycan array binding signal (z-score) [23]: -0.228
- glycan array binding signal (z-score) [24]: -0.174
- glycan array binding signal (z-score) [25]: -0.123
- glycan array binding signal (z-score) [26]: 0.335
- glycan array binding signal (z-score) [27]: -0.475
- glycan array binding signal (z-score) [28]: 0.451
- glycan array binding signal (z-score) [29]: -0.474
- glycan array binding signal (z-score) [30]: -0.21
- glycan array binding signal (z-score) [31]: -0.331
- glycan array binding signal (z-score) [32]: 0.249
- glycan array binding signal (z-score) [33]: -0.211
- glycan array binding signal (z-score) [34]: 0.017
- glycan array binding signal (z-score) [35]: -0.309
- glycan array binding signal (z-score) [36]: -0.442
- glycan array binding signal (z-score) [37]: -0.515
- glycan array binding signal (z-score) [38]: -0.69
- glycan array binding signal (z-score) [39]: -0.535
- glycan array binding signal (z-score) [40]: -0.582
- glycan array binding signal (z-score) [41]: -0.044
- glycan array binding signal (z-score) [42]: -0.335
- glycan array binding signal (z-score) [43]: -0.638
- glycan array binding signal (z-score) [44]: -0.254
- glycan array binding signal (z-score) [45]: -0.342
